According to PubChem BioAssay AID504444 (National Center for Advancing Translational Sciences (NCATS), 2011):
“And” between values parts separate entries of the source, which are not always exact repeats. Identical values can stand only once. Screen size: about 360,000 compounds; about 7,500 (2.1%) were called active. Inconclusive means that the source gave no clear call. Such entries were picked first, then a sample of the others. The call rests on the fitted dose curve; in most records, active means well fitted inhibition curve with a large enough effect; inconclusive means small, poorly fitted or top-dose-only effect, or effect the other way; inactive means flat fitted curve, though single readings scatter. Where the call is inconclusive, the potency comes from a doubtful curve fit.

Assay: Nrf2 qHTS screen for inhibitors; further: nearly all actives have a fitted effect of over 60% in size
Details: A549 ARE-Fluc reporter, luciferase luminescence, 18-24 h; activity change, negative = inhibition: at 46 µM (top of the series)
Outline: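 Reporter: ARE-Fluc in A549. Exposure: 18-24 h, 37 °C, 5% CO2, 5% FBS OPTI-MEM. Readouts: fluorescent cytotoxicity (CellTiter-Fluor), then luminescent Nrf2 signal after BugLite.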
On the % scale 0 is the no-effect control and ±100 the full control effect; potency means the concentration at half of the fitted maximal effect.

| Structure (SMILES) | Potency | activity change, negative = inhibition |
| --- | --- | --- |
| CC(=O)c1cccc(NC(=O)Nc2nc(C)cc(C)n2)c1 | inconclusive: 5.8 µM [activator, partial curve] |  |
| COc1ccc(C(=O)/C(C#N)=N/Nc2ccc([N+](=O)[O-])cc2)cc1 | active: 2.59 µM |  |
| CCCCCN(C(=O)CCC(=O)OCC(=O)c1ccc(CCC)cc1)c1c(N)n(CCCC)c(=O)[nH]c1=O | inconclusive: 23.1 µM [falling, partial curve, poor fit] |  |
| O=C(CS(=O)(=O)Cc1ccccc1)Nc1ccc(Cl)cn1 | inconclusive: 25.9 µM [activator, single point] |  |
| Cc1ccc(C(=O)N/N=C\c2ccc(-c3ccc(Cl)c(Cl)c3)o2)cn1 | active: 18.4 µM |  |
| CCc1nn(CCCC(=O)Nc2ccc(C)c(C)c2)c(=O)c2cc3occc3n12 | inconclusive: 5.17 µM [falling, partial curve, poor fit] |  |
| O=c1ccc(-c2ccc(S(=O)(=O)Nc3ccc(F)cc3)s2)n[nH]1 | inactive |  |
| O=C(NCC1CCCO1)c1cc2ccccc2cc1O (configuration not stated) | inconclusive: 4.11 µM [activator, full curve, poor fit] |  |
| Cn1nccc1C(=O)N/N=C/c1c(O)ccc2ccccc12 | inconclusive: 25.9 µM [falling, single point] |  |
| O=C(CN1CCOCC1)Nc1ccc(S(=O)(=O)NC2CCCCC2)cc1 | inconclusive: 10.3 µM [falling, partial curve, poor fit] |  |
| CCOc1ccc(S(=O)(=O)NCCc2ccccn2)cc1 | inactive |  |
| CC(C)[C@H](NC(=O)N1CC(=O)Nc2ccccc21)C(=O)N[C@@H](Cc1c[nH]c2ccccc12)C(=O)O |  | inconclusive: 134% [activator] |
| COc1cc2c(cc1OC)C(COc1ccc3c(C)cc(=O)oc3c1)N(C(=O)c1cccc(OC)c1OC)CC2 (configuration not stated) |  | inactive: -12.5% [at 9.27 µM] |
| CSCC(=O)Nc1nc(-c2ccc3c(c2)OCCO3)cs1 | inconclusive: 6.51 µM [activator, full curve] |  |
| CCOC(=O)Nc1nnc(-c2ccc(OC)cc2)s1 | inactive |  |
| CCc1cc(C(=O)OC)c(NC(=O)C2CC(=O)NN2Cc2ccccc2)s1 (configuration not stated) | inconclusive: 20.6 µM [falling, single point] |  |
| Oc1ccc(Cl)cc1C1C=C(c2ccc3c(c2)OCO3)NC(c2c(F)cccc2Cl)N1 (configuration not stated) | inactive |  |
| C=CCn1cnc2c(oc3ccccc32)c1=O | inconclusive: 25.9 µM [activator, single point] |  |
| Cc1cccc(C)c1OCC(=O)Nc1cccc(-c2nnc(-c3ccccc3)o2)c1 | inconclusive: 5.8 µM [falling, partial curve, poor fit] |  |
| CCOc1cc(Br)c(C(C)NC(=O)c2cccnc2)cc1OCC (configuration not stated) | inconclusive: 23.1 µM [falling, partial curve] |  |
| CCCCOc1ccc(C(=O)NCC(=O)N2CC=C(c3ccccc3)CC2)cc1 | inconclusive: 1.64 µM [falling, partial curve] |  |
| COCCCNC(=S)Nc1cc(C)c(C)cc1C | inconclusive: 16.4 µM [falling, partial curve] |  |
| CCc1cc2c(=O)c(-c3cnn(-c4ccccc4)c3)c(C)oc2c(CN2CCCCC2)c1O | inconclusive: 8.2 µM [falling, partial curve, poor fit] |  |

| Structure (SMILES) | Potency | activity change, negative = inhibition |
| --- | --- | --- |
| CN(C)CCNc1ccc(-c2nn(C)c(=O)c3ccccc23)cc1[N+](=O)[O-] | inactive |  |
| N#Cc1nc(-c2cccs2)oc1NCc1ccc2c(c1)OCO2 | inactive |  |
| c1ccc2c(c1)ncn2CCC1CCCCC1 | inconclusive: 32.6 µM [falling, single point] |  |
| CCOc1cccc(-c2nnc3n2N=C(c2cc(OC)ccc2OC)CS3)c1 | inconclusive: 25.9 µM [falling, single point] |  |
| CCN(C1CCCCC1)S(=O)(=O)CCNC(=O)c1ccccc1 | inactive |  |
| C#CCn1c(S(=O)(=O)Cc2ccc(C)cc2)nc(-c2ccccc2)c1-c1ccccc1 | inconclusive: 5.8 µM [activator, single point] and inconclusive: 6.51 µM [activator, single point] |  |
| c1ccc(Oc2cc(-c3ccccc3)ncn2)cc1 | inconclusive: 11.6 µM [activator, partial curve, poor fit] |  |
| O=S(=O)(c1ccc2ccccc2c1)N1CCOCC1 | inconclusive: 3.66 µM [falling, partial curve, poor fit] |  |
| COC(=O)Cn1c(=O)n(CCc2ccccc2)c(=O)c2c3c(sc21)CCCC3 | inconclusive: 2.31 µM [activator, partial curve, poor fit] |  |
| Cc1ccc(-n2nc3c(N4CCC(C(=O)NCCc5cccs5)CC4)nnc(C)c3c2C)cc1 | inconclusive: 29.1 µM [falling, single point] |  |
| Cc1c(C(c2ccc(O)cc2)c2c(C)n(C)n(-c3ccccc3)c2=O)c(=O)n(-c2ccccc2)n1C | inactive |  |
| Cc1ccc(N=Nc2ccc3ccccc3c2O)cc1 | inconclusive: 5.17 µM [activator, full curve] |  |
| O=C(CSc1nc2ccc(Cl)cc2[nH]1)N1CCN(C(=O)c2ccco2)CC1 | inactive |  |
| Cc1ccccc1-c1nc2sc3c(c2c(=O)n1N)CCCC3 | inconclusive: 9.2 µM [activator, partial curve] |  |
| CC(=O)N1N=C(C)CC1c1ccc(O)cc1 (configuration not stated) | inconclusive: 0.461 µM [falling, full curve, poor fit] |  |
| Cc1c(OCC(=O)N2CCC(C(=O)NCCCC(=O)O)CC2)ccc2c1oc(=O)c1ccccc12 | inconclusive: 29.1 µM [falling, single point] |  |
| COc1ccc(NC(=S)NC2CC3CCC2C3)c(OC)c1 (configuration not stated) | inconclusive: 4.61 µM [activator, full curve] |  |
| C/C(=N\NC(=O)c1ccccn1)c1ccc(Cl)cc1 | inactive |  |
| COc1ccc2c(c1)c1c(c(=O)n(Cc3ccccc3)c(=O)n1CC(=O)Nc1cc(C)cc(C)c1)n2C | inactive |  |
| Cc1ccc(CONC(=O)c2ccc(C)cc2)cc1 | inconclusive: 10.3 µM [activator, partial curve] |  |
| O=C(COC(=O)c1cnc(Cl)c(Cl)c1)Nc1cccc(S(=O)(=O)N2CCOCC2)c1 | inactive |  |
| CCOc1ccc(NC(=O)CN(C)C(=O)c2cc([N+](=O)[O-])ccc2N2CCOCC2)cc1OCC | inactive |  |
| CC(C)=C[C@@H]1C[C@H](C)[C@H]2CC[C@H](C)c3c(O[C@@H]4O[C@@H](C)[C@@H](O)[C@@H](O)[C@@H]4O)c(O)c(C)c1c32 | inconclusive: 29.1 µM [falling, single point] |  |

| Structure (SMILES) | Potency | activity change, negative = inhibition |
| --- | --- | --- |
| CCC(C)Nc1nc2c(c(=O)n(C)c(=O)n2C)n1Cc1ccc(Cl)cc1 (configuration not stated) | inconclusive: 29.1 µM [falling, single point] |  |
| Cc1cccc(N2CCN(C(=O)c3ccc4c(c3)c(C)c(C)n4C)CC2)c1C | inconclusive: 18.4 µM [activator, partial curve, poor fit] |  |
| CCOc1ccc(NC(=O)N2CCC(CN3CCCCCC3)CC2)cc1 | inconclusive: 18.4 µM [activator, single point] |  |
| Cc1ccc2c(n1)sc1c(=O)n(-c3cccc(C(F)(F)F)c3)nnc12 | inactive |  |
| CC(=O)c1ccc(N2CCN(C(=O)Nc3ccc(Cl)cc3)CC2)cc1 | active: 16.4 µM |  |
| O=c1oc2cc(O)ccc2s1 | active: 13 µM |  |
| CC1=CC2=NC(=O)/C(=C\c3cccn3CCOc3cc(C)cc(C)c3)C(=N)N2O1 | inactive |  |
| N#Cc1nc(-c2ccccc2Cl)oc1NCC1CCCO1 (configuration not stated) | inconclusive: 25.9 µM [falling, partial curve, poor fit] |  |
| COc1ccc(N2CCN(C(c3ccco3)c3sc4nc(C)nn4c3O)CC2)cc1 (configuration not stated) | inconclusive: 9.2 µM [activator, partial curve] |  |
| Cc1csc(NC(=O)c2nn(C)c(C)c2[N+](=O)[O-])n1 | inconclusive: 25.9 µM [activator, partial curve, poor fit] |  |
| CC1Cc2ccccc2N1S(=O)(=O)c1cccc(C(=O)NCc2ccccn2)c1 (configuration not stated) | inconclusive: 32.6 µM [falling, partial curve, poor fit] |  |
| CCOC(=O)c1ccc(NC(=O)c2cn(CCC#N)nc2-c2ccc3c(c2)OCCO3)cc1 | inconclusive: 25.9 µM [falling, single point] |  |
| O=[N+]([O-])c1cccc(S(=O)(=O)NC2CC3CCC2C3)c1 (configuration not stated) | inconclusive: 3.66 µM [falling, full curve] |  |
| CCc1cccc(NC(=O)c2cc3c(=O)[nH]c4ccccc4c3n2C)c1 | inconclusive: 20.6 µM [falling, single point] |  |
| CC(=O)N1CCN(c2ccc(NCc3ccc(-c4cccc(Cl)c4)o3)cc2)CC1 | inconclusive: 29.1 µM [falling, single point] |  |
| Cn1nnnc1Sc1ncnc2scc(-c3cccc(Br)c3)c12 | active: 23.1 µM |  |
| Cc1cc2c(=O)n(Cc3ccco3)c(SCC(=O)N3CCCc4ccccc43)nc2s1 | inconclusive: 29.1 µM [falling, single point] |  |
| COc1ccc(NC(=O)CSc2nnc3ccc(-c4ccccn4)nn23)cc1OC | inactive |  |
| COc1ccc(CN(C)S(=O)(=O)c2nnc(NC(=O)C(C)C)s2)cc1OC | inconclusive: 20.6 µM [falling, single point] |  |
| CCOC(=O)c1ccc(NC(=O)c2nc[nH]c2C(=O)NCCCCCNC(=O)OC(C)(C)C)cc1 | inconclusive: 20.6 µM [falling, single point] |  |
| Cc1c(/C(O)=C2/C(=O)C(=O)N(CCN3CCOCC3)C2c2ccccn2)cnn1-c1ccccc1 (configuration not stated) | inconclusive: 23.1 µM [activator, partial curve, poor fit] |  |
